Reference: PubChem BioAssay AID651640 (Broad Institute, 2012)
Where “and” joins values, the source holds several entries; their conditions need not be identical. Identical values can stand only once. In all, about 350,000 compounds went through this assay and about 6,000 (1.7%) were called active. The shares of active, inactive and inconclusive entries below differ from those in the screen. No stated cut-off is given here; in the data, active means CPE inhibition above about 20% (passing the limit was not always enough); inconclusive means no clear call, values can overlap the other calls; tested in BHK-21 cells.

Assay: protection of cells from dengue 2 killing – plate reader, single concentration, primary screen (AID 651640);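 further: 0% = median of neutral control wells and 100% = median of positive control wells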
Settings: DENV2-infected cells, cytopathic effect rescue, at 9.99 µM, active compounds read high
With `O=C(C[C@@H]1CC[C@@H](NC(=O)c2cccc(F)c2)[C@H](CO)O1)NCCN1CCCC1` the CPE inhibition was inconclusive: 25.6%.
With `COc1cccc(-c2oc3c(c2C(=O)OCCN(C)C)C(O)CCC3)c1` (stereo unspecified) the CPE inhibition was inconclusive: 31.2%.
In the case of `O=C(NC(c1ccc(Cl)cc1)c1cnccn1)C1CCN(Cc2ccc(Cl)cc2)CC1` (stereo unspecified), the CPE inhibition is reported as inconclusive: 26.3%.
In the case of `O=C(C[C@H]1C=C[C@H](NC(=O)c2cccc(F)c2)[C@@H](CO)O1)NCCN1CCCC1`, the CPE inhibition is reported as inconclusive: 53.1%.
For `Cc1ccc(C)c(CN2CCC(CNC(=O)Nc3ccc(C)c(F)c3)CC2)c1`, the CPE inhibition was inconclusive: 23.4%.
For `CC(=O)Nc1ccc2c(c1)C(=O)N(C)[C@H]1CC[C@@H](CC(=O)NCc3ccc4c(c3)OCO4)O[C@@H]1CO2`, the CPE inhibition was inactive: 19.6%.
In the case of `CCN(C(=O)CN1C(=O)NC2(CCCc3ccccc32)C1=O)c1ccc(F)cc1` (stereo unspecified), the CPE inhibition is reported as inconclusive: 56.6%.
In the case of `COc1nc2ccccc2nc1OC`, the CPE inhibition is reported as inconclusive: 52.3%.
With `C[C@@H]1CCCCO[C@@H](CN(C)C(=O)Nc2ccc(C(F)(F)F)cc2)[C@@H](C)CN([C@H](C)CO)C(=O)c2cc(NS(=O)(=O)c3cccs3)ccc2O1` the CPE inhibition was inconclusive: 29.2%.
With `COc1ccc(C(=O)N2CCCC(Nc3ccc(F)cc3)C2)cc1F` (stereo unspecified) the CPE inhibition was inconclusive: 70.6%.
For `COCc1cc(C)n(CC(=O)Nc2ccc(N3CCOCC3)cc2)c(=O)c1C#N`, the CPE inhibition was inconclusive: 44.8%.
For `CCN(CC)S(=O)(=O)c1ccc(O)c(C(=O)OCC(=O)NC2CCCC2)c1`, the CPE inhibition was inactive: 5.78%.
With `C[C@@H]1CN([C@H](C)CO)C(=O)Cc2cc(NS(=O)(=O)c3cccs3)ccc2O[C@H]1CN(C)S(=O)(=O)c1ccc(F)cc1` the CPE inhibition was active: 24.3%.
In the case of `CCNC(=O)C[C@H]1CC[C@@H]2[C@H](COC[C@@H](O)CN2C(=O)C2CCOCC2)O1`, the CPE inhibition is reported as inactive: -5.03%.
With `C[C@@H]1CN([C@H](C)CO)S(=O)(=O)c2ccc(-c3ccc(C#N)cc3)cc2O[C@@H]1CN(C)Cc1ccccn1` the CPE inhibition was inactive: -10.2%.
In the case of `CCCCNc1c(-c2ccc(OC)c(SC3CCCCC3)c2)nc2ccc(Cl)cn12`, the CPE inhibition is reported as inconclusive: 23.4%.
In the case of `CCN(CC)CC(O)c1ccc2ccc3ccc(O)cc3c2c1` (stereo unspecified), the CPE inhibition is reported as inactive: -0.881%.
In the case of `CN1CCN(C(=O)C[C@H]2C=C[C@H](NC(=O)Nc3ccccc3F)[C@@H](CO)O2)CC1`, the CPE inhibition is reported as inconclusive: 20.3%.
For `O=C(N[C@H](Cc1ccccc1)C(=O)N1CCCN(Cc2cccs2)CC1)[C@H]1O[C@@H](n2ccc(=O)[nH]c2=O)[C@H](O)[C@@H]1O`, the CPE inhibition was inactive: -10.6%.
In the case of `CCO[C@H]1OC(C(=O)N2CCN(Cc3ccc4c(c3)OCO4)CC2)=C[C@@H](C)[C@@H]1CCCO`, the CPE inhibition is reported as inactive: -1.8%.
For `Cc1cc(C)c(S(=O)(=O)NC2CCN(Cc3ccccc3)CC2)c(C)c1`, the CPE inhibition was inconclusive: 30.6%.
For `C[C@@H]1CN([C@H](C)CO)S(=O)(=O)c2ccc(Br)cc2O[C@@H]1CN(C)Cc1ccncc1`, the CPE inhibition was inconclusive: 33%.
For `CC(C)(O)C#Cc1ccc([C@H]2[C@H]3CN(C(=O)c4ccc(F)cc4)CCCCN3[C@H]2CO)cc1`, the CPE inhibition was inactive: -1.82%.
In the case of `O=C(Cc1cccc2ccccc12)OCn1nnc2ccccc2c1=O`, the CPE inhibition is reported as inactive: -0.566%.
With `CC1(C)CC(=O)C(C=Nc2ccc(O)cc2)=C(O)C1` the CPE inhibition was inconclusive: 26.2%.
With `C=C1CCN(c2ccc(C(=O)NCc3ccc(OC)cc3)cc2[N+](=O)[O-])CC1` the CPE inhibition was inconclusive: 20.6%.
With `COc1ccc(NC(=O)CC2SC(N3CCCCC3)=NC2=O)cc1OC` (stereo unspecified) the CPE inhibition was inconclusive: 35.9%.
With `CNC[C@@H]1Oc2ccc(NC(=O)CCC(F)(F)F)cc2C(=O)N([C@H](C)CO)C[C@H]1C` the CPE inhibition was inactive: -1.24%.
For `CNC[C@@H]1Oc2cc(-c3cncnc3)ccc2S(=O)(=O)N([C@H](C)CO)C[C@H]1C`, the CPE inhibition was inactive: 11.8%.
In the case of `C[C@@H]1CN([C@H](C)CO)C(=O)Cc2cc(NC(=O)NC3CCCCC3)ccc2O[C@H]1CN(C)CC1CCCCC1`, the CPE inhibition is reported as active: 24.9%.
With `COc1cccc(-c2cnc3c(c2)C(=O)N([C@@H](C)CO)C[C@H](C)[C@@H](CN(C)Cc2ccc(F)cc2)O3)c1` the CPE inhibition was inconclusive: 23.2%.
In the case of `CC(C)OC(=O)c1ccc2ccc(-c3ccccc3)nc2c1`, the CPE inhibition is reported as inconclusive: 44.8%.
In the case of `CCN(CC(=O)Nc1c(F)cccc1F)C(=O)c1cccnc1SC`, the CPE inhibition is reported as inconclusive: 35.2%.
For `C[C@H](CO)N1C[C@H](C)[C@H](CN(C)Cc2ccc(C(=O)Nc3ccccc3N)cc2)OCCCC[C@H](C)Oc2ccc(NC(=O)C3CCCCC3)cc2C1=O`, the CPE inhibition was inactive: -5.41%.
In the case of `COc1ccc(-c2sc3cc4c(cc3c2C#Cc2cncn2C)OCO4)cc1`, the CPE inhibition is reported as active: 34.2%.
For `CN1CCN(C2CN(Cc3cn(Cc4ccccc4F)nn3)S(=O)(=O)C2)CC1` (stereo unspecified), the CPE inhibition was inconclusive: 64.9%.
In the case of `CNC[C@@H]1Oc2ccc(NS(=O)(=O)c3ccc(OC)cc3)cc2C(=O)N([C@H](C)CO)C[C@@H]1C`, the CPE inhibition is reported as inconclusive: 20.9%.
For `COc1ccc2c3c([nH]c2c1)[C@H](CO)N(Cc1ccncc1)CC31CCN(Cc2ccc(-c3ccccn3)cc2)CC1`, the CPE inhibition was inactive: 0.656%.
With `CCCOc1cccc(C(=O)N/N=C/c2coc3ccccc3c2=O)c1` the CPE inhibition was inconclusive: 35.3%.
With `Cn1c(=O)c(=O)n(C)c2cc(N3CCOCC3)c(NS(=O)(=O)c3ccc([N+](=O)[O-])cc3)cc21` the CPE inhibition was inactive: 0.422%.
In the case of `Cc1noc(C)c1NC(=O)N(C)C[C@H]1Oc2c(NC(=O)c3nc4ccccc4s3)cccc2C(=O)N([C@H](C)CO)C[C@H]1C`, the CPE inhibition is reported as inconclusive: 25.2%.
With `C[C@@H]1CCCCO[C@H](CN(C)C(=O)CCC(F)(F)F)[C@H](C)CN([C@@H](C)CO)C(=O)c2cc(NC(=O)Nc3ccc4c(c3)OCO4)ccc2O1` the CPE inhibition was active: 26.1%.
In the case of `Cc1c(NC(=O)c2cccc(S(=O)(=O)N(C)c3ccccc3)c2)c(=O)n(-c2ccccc2)n1C`, the CPE inhibition is reported as inconclusive: 21.1%.
For `O=C(CSc1nnc(CNC(=O)c2ccccc2)o1)Nc1nccs1`, the CPE inhibition was inconclusive: 35.3%.
With `CCCN1C(=O)c2ccccc2NC1c1ccc(O)c(OCC)c1` (stereo unspecified) the CPE inhibition was inconclusive: 23.5%.
For `COc1ccc(NC2=C(NCCO)C(=O)c3ccccc3C2=O)cc1`, the CPE inhibition was inconclusive: 24.5%.
In the case of `O=C(NC1CC1)c1cc2cc3ccccc3nc2s1`, the CPE inhibition is reported as inconclusive: 39.5%.
In the case of `CC(C)OC(=O)/C(C#N)=C/c1c[nH]c2ccccc12`, the CPE inhibition is reported as inconclusive: 35.8%.
With `CN(C)/C=C/C(=O)c1ccc2noc(-c3ccc(F)cc3)c2c1` the CPE inhibition was inactive: 1.99%.
With `N=c1c(C(=O)NCC2CCCO2)cc2c(=O)n3ccccc3nc2n1C1CCCC1` (stereo unspecified) the CPE inhibition was inactive: -1.5%.
For `Nc1c(Cl)c(Cl)nc(C(=O)OCC(=O)N2CCCC2=O)c1Cl`, the CPE inhibition was inconclusive: 52.3%.
For `CN(CCO)c1cc(N2CCC3(CC2)OCCO3)c2nonc2c1[N+](=O)[O-]`, the CPE inhibition was inconclusive: 46.5%.
With `O=C(N[C@H]1C[C@@H]2O[C@H](CO)CC[C@@H]2O[C@@H]1CCc1ccc(-c2ccccc2)cc1)c1cnccn1` the CPE inhibition was inconclusive: 44.6%.
With `C[C@H](CO)N1C[C@H](C)[C@H](CN(C)C(=O)Nc2ccccc2F)Oc2ncc(-c3ccc(F)cc3)cc2C1=O` the CPE inhibition was inconclusive: 24.7%.
In the case of `O=C(c1ccc2c(c1)OCO2)N1CC(=O)N2[C@H](CO)[C@@H](c3ccc(C#Cc4ccccc4)cc3)[C@@H]2C1`, the CPE inhibition is reported as inconclusive: 24.1%.
In the case of `COc1ccc(C2c3c(-c4ccccc4O)n[nH]c3C(=O)N2Cc2ccco2)cc1OC` (stereo unspecified), the CPE inhibition is reported as inactive: -4.51%.
For `Cc1ccc(OCCNC(=O)Cc2ccc(S(=O)(=O)N3CCOCC3)s2)cc1`, the CPE inhibition was inconclusive: 26.3%.
With `Cc1ccc(C)c(OCC(=O)O/N=C(\N)c2cccc([N+](=O)[O-])c2)c1` the CPE inhibition was inconclusive: 23.9%.
For `COc1cc(CN2C[C@@H]3N[C@H](C2)C3c2ccc(/C=C/c3ccccc3)cc2)cc(OC)c1` (stereo partly specified), the CPE inhibition was inactive: -11% and inactive: -17.6%.
In the case of `CCc1noc(C)c1C(=O)OCC(=O)Nc1cccc(C)c1`, the CPE inhibition is reported as inconclusive: 48.5%.
With `CCOC(=O)c1cc(NC(=O)N(CC)C2CCCCC2)c(C)nc1C` the CPE inhibition was inconclusive: 23%.
In the case of `Cc1[nH]c(=O)[nH]c(=O)c1CCSSCCc1c(C)[nH]c(=O)[nH]c1=O`, the CPE inhibition is reported as inconclusive: 23.3%.
In the case of `C[C@@H]1CCCCO[C@@H](CN(C)S(=O)(=O)c2ccc(Cl)cc2)[C@H](C)CN([C@@H](C)CO)C(=O)c2cc(NC(=O)Nc3ccc(C(F)(F)F)cc3)ccc2O1`, the CPE inhibition is reported as active: 35.5%.
With `CCOc1ccc(-c2nc(C#N)c(NCc3ccc4c(c3)OCO4)o2)cc1` the CPE inhibition was inconclusive: 61.4%.
For `Cc1ccc(S(=O)(=O)N(C)C[C@H]2Oc3c(NC(=O)Nc4ccc(C(F)(F)F)cc4)cccc3C(=O)N([C@@H](C)CO)C[C@H]2C)cc1`, the CPE inhibition was inactive: 8.23%.
With `CCCC#Cc1ccc([C@H]2[C@H]3CN(C(=O)c4ccccc4)CC(=O)N3[C@H]2CO)cc1` the CPE inhibition was inactive: 1.69%.
For `Cc1cc(NS(=O)(=O)c2ccc(NC(=O)C(C)Oc3ccccc3Cl)cc2)no1` (stereo unspecified), the CPE inhibition was inconclusive: 58.2%.
With `CNC[C@@H]1OCCCC[C@@H](C)Oc2ccc(NC(=O)Nc3c(C)noc3C)cc2C(=O)N([C@H](C)CO)C[C@H]1C` the CPE inhibition was active: 21.8%.
In the case of `CN1C[C@@H]2[C@@H]3C(=O)N(Cc4ccccc4)C(=O)[C@@H]3[C@](Cc3ccccc3)(C1=O)N2C(=O)c1ccc(Br)cc1`, the CPE inhibition is reported as inconclusive: 22.4%.
In the case of `C[C@@H]1CCCCO[C@@H](CN(C)Cc2ccc(Cl)c(Cl)c2)[C@H](C)CN([C@H](C)CO)C(=O)c2cc(NS(=O)(=O)c3ccc(F)cc3)ccc2O1`, the CPE inhibition is reported as inconclusive: 42.7%.
In the case of `Cc1ccc(S(=O)(=O)NC(=O)COc2ccc(Cl)cc2Cl)cc1`, the CPE inhibition is reported as inconclusive: 26.5%.
